# Assay results from PubChem BioAssay AID248 (DTP/NCI, 2004).
# The list does not hold the whole screen: it gathers tests that were run many times, whatever their T/C, doses with no T/C, and many T/C values between a quarter and a half above the control. Further doses and runs are listed elsewhere. T/C is the treated group as % of the vehicle group. Some entries give survivors of the animals treated and no T/C: the source holds a T/C of zero for them, seemingly a mark for toxic or unscored doses. Some doses without a T/C left all or most animals alive at the check, yet need not have been tolerated: the source hardly ever lists a survival T/C far under the control, and the zero likely stands for such cases as well. Counts of survivors are from the toxicity check (mostly the fifth day) where no day follows; animals may have died later. Schedules are NCI's codes, taken here to give the interval after Q, in days (D) or hours (H), and the number of doses after X. Some schedule codes hold Z or #, which are not explained here. Some molecules as drawn cover several salts, stereoisomers or complexes of the source; a dose is that of the sample tested. For survival time, the PubChem record calls one and a half times the control and up active, and a quarter to a half above the control has no call in these data; cut-offs in other NCI protocols can differ. Some T/C values are followed by the survivors on the day toxicity was checked, most often the fifth; without a count, all were alive then. Some entries hold several experiments; the results are listed from low to high.
# Tested on: L1210 leukemia ip in BDF1 mice, survival T/C
# Assay: NCI In Vivo Anticancer Drug Screen. Data for tumor model L1210 Leukemia (intraperitoneal) in B6D2F1 (BDF1) mice
# Conditions: T/C endpoint: mean survival time, higher T/C = longer survival
# [1] = dose: 200.0 mg/kg/injection, schedule: Q04DX002 (ip), vehicle: saline
# [2] = dose: 400.0 mg/kg/injection, schedule: Q04DX002 (ip), vehicle: saline
# [3] = dose: 400.0 mg/kg/injection, schedule: Q04DX003 (ip), vehicle: Klucel (hydroxypropylcellulose) (HPC)
# [4] = dose: 200.0 mg/kg/injection, schedule: Q01DX009 (ip), vehicle: Klucel (hydroxypropylcellulose) (HPC)
# [5] = dose: 400.0 mg/kg/injection, schedule: Q01DX001 (ip), vehicle: saline
# [6] = dose: 400.0 mg/kg/injection, schedule: Q01DX009 (ip), vehicle: Klucel (hydroxypropylcellulose) (HPC)
smiles,measurement,setting,value
Cc1cccc(SC(=O)SC(C)CN)c1 (stereo not given),survivor count,[1],0 of 3
same,survivor count,[2],0 of 3
COc1cc(C)c(Cl)c(C)c1C#CC(=O)O,survivor count,"dose: 300.0 mg/kg/injection, schedule: Q01DX009 (ip), vehicle: Klucel (hydroxypropylcellulose) (HPC)",0 of 6
Cc1ccc(C(=O)Nc2ccc(OCCCc3c(N)nc(N)nc3N)cc2)cc1S(=O)(=O)F,survivor count,"dose: 100.0 mg/kg/injection, schedule: Q04DX003 (ip), vehicle: Klucel (hydroxypropylcellulose) (HPC)",3 of 6
same,survivor count,"dose: 200.0 mg/kg/injection, schedule: Q04DX003 (ip), vehicle: Klucel (hydroxypropylcellulose) (HPC)",1 of 6
same,survivor count,[3],0 of 6
CC1=COC2CCCCC2O1 (stereo not given) (tested in a mixture with another compound),survivor count,"dose: 200.0 mg/kg/injection, schedule: Q01DX009 (ip), vehicle: acetone",6 of 6
same,survivor count,"dose: 400.0 mg/kg/injection, schedule: Q04DX003 (ip), vehicle: acetone",5 of 6
Cc1cc(C2=NCC(C)(C)S2)ccc1O,survivor count,"dose: 200.0 mg/kg/injection, schedule: Q01DX005 (ip), vehicle: saline with Tween-80",3 of 3
same,survivor count,"dose: 400.0 mg/kg/injection, schedule: Q01DX005 (ip), vehicle: saline with Tween-80",3 of 3
CNC(=O)Oc1cccc2c1C(=O)OC2=O,survivor count,"dose: 400.0 mg/kg/injection, schedule: Q01DX001 (ip), vehicle: other",1 of 6
CNC(=O)OCc1c(COC(=O)NC)c(-c2ccc(Cl)c(Cl)c2)n2c1CCC2,survivor count,"dose: 100.0 mg/kg/injection, schedule: Q01DX009 (ip), vehicle: Klucel (hydroxypropylcellulose) (HPC)",3 of 3
same,survivor count,[4],3 of 3
Nc1ccc(CCCNc2c(N)nc(N)nc2-c2ccccc2)cc1,survivor count,[5],2 of 4
CSc1ccc(NC(=O)Nc2cccc(Cl)c2C)cc1,survivor count,"dose: 200.0 mg/kg/injection, schedule: Q04DX003 (ip), vehicle: saline with Tween-80",6 of 6
O=Nc1ccc(O)c2ncccc12,survivor count,[3],0 of 6
Nc1nc(N)nc(Cl)n1,survivor count,"dose: 200.0 mg/kg/injection, schedule: Q04DX002 (ip), vehicle: saline with Tween-80",3 of 3
COc1ccccc1C(=O)NN,survivor count,"dose: 100.0 mg/kg/injection, schedule: Q01DX009 (ip), vehicle: saline",1 of 6
same,survivor count,"dose: 100.0 mg/kg/injection, schedule: Q04DX002 (ip), vehicle: saline",2 of 3
same,survivor count,"dose: 100.0 mg/kg/injection, schedule: Q04DX003 (ip), vehicle: saline",0 of 6
same,survivor count,[1],0 of 3
same,survivor count,"dose: 200.0 mg/kg/injection, schedule: Q04DX003 (ip), vehicle: saline",0 of 6
same,survivor count,[2],0 of 3
same,survivor count,"dose: 400.0 mg/kg/injection, schedule: Q04DX003 (ip), vehicle: saline",0 of 6
CCN(CC)CCOc1ccc(C)cc1,survivor count,"dose: 200.0 mg/kg/injection, schedule: Q01DX009 (ip), vehicle: saline",0 of 6
COc1cc(Cl)ccc1NC(=O)Oc1ccc2c(C)cc(=O)oc2c1,survivor count,[4],5 of 6
same,survivor count,[6],0 of 6
CC(=O)Nc1ncnc(NC(C)=O)c1N=O,survivor count,[5],0 of 3
O=C1c2nc3ccccc3nc2C(=O)N1O,survivor count,[6],6 of 6
CCCOC1=C(N2CC2)C(=O)C(OCCC)=C(N2CC2)C1=O,T/C,"dose: 2.5 mg/kg/injection, schedule: Q01DX Z (ip), vehicle: alkali diluted with saline",125 % of control
same,T/C,"dose: 2.5 mg/kg/injection, schedule: Q#A X Z (ip), vehicle: alkali diluted with saline",136 % of control
same,T/C,"dose: 5.0 mg/kg/injection, schedule: Q01DX Z (im), vehicle: alkali diluted with saline",130 % of control
same,T/C,"dose: 5.0 mg/kg/injection, schedule: Q01DX Z (ip), vehicle: alkali diluted with saline",125 % of control
same,T/C,"dose: 5.0 mg/kg/injection, schedule: Q01DX Z (sc), vehicle: alkali diluted with saline",128 % of control
same,T/C,"dose: 7.5 mg/kg/injection, schedule: Q01DX009 (ip), vehicle: Klucel (hydroxypropylcellulose) (HPC)",138 % of control
same,T/C,"dose: 7.5 mg/kg/injection, schedule: Q04DX003 (ip), vehicle: Klucel (hydroxypropylcellulose) (HPC)",131 % of control
same,T/C,"dose: 10.0 mg/kg/injection, schedule: Q01DX Z (ip), vehicle: alkali diluted with saline",146 % of control
same,T/C,"dose: 10.0 mg/kg/injection, schedule: Q01DX Z (sc), vehicle: alkali diluted with saline",133 % of control
same,T/C,"dose: 10.0 mg/kg/injection, schedule: Q#A X Z (ip), vehicle: alkali diluted with saline",134 % of control
same,T/C,"dose: 15.0 mg/kg/injection, schedule: Q04DX003 (ip), vehicle: Klucel (hydroxypropylcellulose) (HPC)",137 % of control
same,T/C,"dose: 15.87 mg/kg/injection, schedule: Q01DX001 (ip), vehicle: saline with Tween-80",127 % of control
same,T/C,"dose: 20.0 mg/kg/injection, schedule: Q01DX Z (ip), vehicle: alkali diluted with saline",125 % of control
same,T/C,"dose: 20.0 mg/kg/injection, schedule: Q01DX Z (oral), vehicle: alkali diluted with saline",125 % of control
same,survivor count,"dose: 31.75 mg/kg/injection, schedule: Q01DX001 (ip), vehicle: saline with Tween-80",8 of 10
same,T/C,"dose: 40.0 mg/kg/injection, schedule: Q01DX Z (oral), vehicle: alkali diluted with saline",139 % of control
same,survivor count,"dose: 40.0 mg/kg/injection, schedule: Q#A X Z (ip), vehicle: alkali diluted with saline",6 of 6
same,T/C,"dose: 62.0 mg/kg/injection, schedule: Q01DX001 (ip), vehicle: alkali diluted with saline",141 % of control
same,survivor count,"dose: 62.5 mg/kg/injection, schedule: Q01DX001 (ip), vehicle: saline with Tween-80",3 of 10
same,T/C,"dose: 80.0 mg/kg/injection, schedule: Q01DX001 (ip), vehicle: alkali diluted with saline",129 % of control
same,survivor count,"dose: 80.0 mg/kg/injection, schedule: Q01DX Z (im), vehicle: alkali diluted with saline",6 of 6
same,survivor count,"dose: 80.0 mg/kg/injection, schedule: Q01DX Z (ip), vehicle: alkali diluted with saline",6 of 6
same,survivor count,"dose: 80.0 mg/kg/injection, schedule: Q01DX Z (sc), vehicle: alkali diluted with saline",6 of 6
same,T/C,"dose: 80.0 mg/kg/injection, schedule: Q07DX003 (ip), vehicle: alkali diluted with saline",139 % of control
same,survivor count,"dose: 80.0 mg/kg/injection, schedule: Q#A X Z (ip), vehicle: alkali diluted with saline",2 of 6
same,survivor count,"dose: 125.0 mg/kg/injection, schedule: Q01DX001 (ip), vehicle: saline with Tween-80",0 of 10
same,survivor count,"dose: 160.0 mg/kg/injection, schedule: Q01DX Z (im), vehicle: alkali diluted with saline",5 of 6
same,survivor count,"dose: 160.0 mg/kg/injection, schedule: Q01DX Z (ip), vehicle: alkali diluted with saline",4 of 6
same,survivor count,"dose: 160.0 mg/kg/injection, schedule: Q01DX Z (oral), vehicle: alkali diluted with saline",5 of 6
same,survivor count,"dose: 160.0 mg/kg/injection, schedule: Q01DX Z (sc), vehicle: alkali diluted with saline",5 of 6
same,survivor count,"dose: 250.0 mg/kg/injection, schedule: Q01DX001 (ip), vehicle: alkali diluted with saline",2 of 6
same,survivor count,"dose: 250.0 mg/kg/injection, schedule: Q01DX001 (ip), vehicle: saline with Tween-80",0 of 10
same,survivor count,"dose: 320.0 mg/kg/injection, schedule: Q01DX Z (oral), vehicle: alkali diluted with saline",2 of 6
same,survivor count,"dose: 500.0 mg/kg/injection, schedule: Q01DX001 (ip), vehicle: saline with Tween-80",0 of 10
same,T/C,"dose: 640.0 mg/kg/injection, schedule: Q01DX001 (ip), vehicle: alkali diluted with saline",125 and 134 % of control [5 of 6 alive]
same,survivor count,"dose: 640.0 mg/kg/injection, schedule: Q01DX Z (oral), vehicle: alkali diluted with saline",0 of 6
O=C(O)c1cc(C(=O)c2ccccn2)c2cccc(C(F)(F)F)c2n1,survivor count,[3],0 of 6
COC(=O)/C=C(\C(=O)OC)N(C)c1ccccc1,survivor count,"dose: 100.0 mg/kg/injection, schedule: Q01DX001 (ip), vehicle: other",3 of 6
same,survivor count,"dose: 200.0 mg/kg/injection, schedule: Q01DX001 (ip), vehicle: other",0 of 6
O=C(NO)c1cccnc1,T/C,"dose: 400.0 mg/kg/injection, schedule: Q01DX015 (ip), vehicle: water",126 and 132 % of control
same,T/C,"dose: 600.0 mg/kg/injection, schedule: Q01DX015 (ip), vehicle: water",126 and 139 % of control
